In the supplement of paper PMC12067093, “Discovery and optimisation of a covalent ligand for TRIM25 and its application to targeted protein ubiquitination” (Chemical Science, 2025):
The list shows a part of the results.

Amino acid sequences for entries named in this document (tags omitted). A change or cut given only in a name is not applied to a line headed by its entry.
UniProt Q96P11: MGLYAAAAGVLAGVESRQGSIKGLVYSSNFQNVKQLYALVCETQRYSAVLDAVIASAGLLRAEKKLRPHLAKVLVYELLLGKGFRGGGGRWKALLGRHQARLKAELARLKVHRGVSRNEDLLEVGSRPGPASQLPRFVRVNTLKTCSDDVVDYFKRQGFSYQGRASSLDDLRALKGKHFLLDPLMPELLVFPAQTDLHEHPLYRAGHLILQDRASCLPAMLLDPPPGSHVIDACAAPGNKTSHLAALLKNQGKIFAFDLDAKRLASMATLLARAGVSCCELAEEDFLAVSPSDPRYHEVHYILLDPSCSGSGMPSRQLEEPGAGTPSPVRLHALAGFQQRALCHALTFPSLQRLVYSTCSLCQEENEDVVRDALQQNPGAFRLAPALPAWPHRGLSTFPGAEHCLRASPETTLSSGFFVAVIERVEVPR
UniProt Q9NPE3: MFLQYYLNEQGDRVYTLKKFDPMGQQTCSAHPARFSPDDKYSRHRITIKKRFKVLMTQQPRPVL
UniProt Q5SY16: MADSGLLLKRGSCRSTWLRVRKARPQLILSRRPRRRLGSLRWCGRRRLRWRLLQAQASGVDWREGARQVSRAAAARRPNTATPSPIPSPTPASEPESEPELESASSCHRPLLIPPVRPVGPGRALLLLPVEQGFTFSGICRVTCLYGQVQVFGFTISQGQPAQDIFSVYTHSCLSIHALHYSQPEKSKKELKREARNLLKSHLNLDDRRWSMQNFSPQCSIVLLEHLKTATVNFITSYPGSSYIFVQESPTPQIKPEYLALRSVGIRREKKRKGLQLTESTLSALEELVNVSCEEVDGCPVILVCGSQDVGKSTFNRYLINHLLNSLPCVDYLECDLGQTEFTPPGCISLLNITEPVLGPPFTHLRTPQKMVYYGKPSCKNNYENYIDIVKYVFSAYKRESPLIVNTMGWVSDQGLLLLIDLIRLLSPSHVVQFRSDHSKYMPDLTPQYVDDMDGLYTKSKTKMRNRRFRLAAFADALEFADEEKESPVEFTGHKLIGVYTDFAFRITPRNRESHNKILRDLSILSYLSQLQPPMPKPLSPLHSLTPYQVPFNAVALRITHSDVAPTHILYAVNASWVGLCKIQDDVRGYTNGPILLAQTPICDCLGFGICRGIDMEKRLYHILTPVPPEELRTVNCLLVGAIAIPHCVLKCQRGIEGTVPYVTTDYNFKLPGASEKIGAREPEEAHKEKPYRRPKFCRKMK
UniProt P16083: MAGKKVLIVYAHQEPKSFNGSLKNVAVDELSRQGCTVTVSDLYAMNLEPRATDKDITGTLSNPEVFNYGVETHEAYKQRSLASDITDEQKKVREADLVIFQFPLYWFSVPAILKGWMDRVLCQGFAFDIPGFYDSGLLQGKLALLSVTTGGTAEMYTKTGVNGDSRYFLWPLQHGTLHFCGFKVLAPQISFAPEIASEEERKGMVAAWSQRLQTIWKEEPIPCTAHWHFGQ
UniProt O75607: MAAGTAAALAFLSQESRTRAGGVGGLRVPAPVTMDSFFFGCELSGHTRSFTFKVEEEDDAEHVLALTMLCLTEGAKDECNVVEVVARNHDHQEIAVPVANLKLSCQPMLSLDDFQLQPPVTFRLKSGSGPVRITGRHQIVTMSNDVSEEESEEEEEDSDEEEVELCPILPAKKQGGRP
UniProt Q9BSC4: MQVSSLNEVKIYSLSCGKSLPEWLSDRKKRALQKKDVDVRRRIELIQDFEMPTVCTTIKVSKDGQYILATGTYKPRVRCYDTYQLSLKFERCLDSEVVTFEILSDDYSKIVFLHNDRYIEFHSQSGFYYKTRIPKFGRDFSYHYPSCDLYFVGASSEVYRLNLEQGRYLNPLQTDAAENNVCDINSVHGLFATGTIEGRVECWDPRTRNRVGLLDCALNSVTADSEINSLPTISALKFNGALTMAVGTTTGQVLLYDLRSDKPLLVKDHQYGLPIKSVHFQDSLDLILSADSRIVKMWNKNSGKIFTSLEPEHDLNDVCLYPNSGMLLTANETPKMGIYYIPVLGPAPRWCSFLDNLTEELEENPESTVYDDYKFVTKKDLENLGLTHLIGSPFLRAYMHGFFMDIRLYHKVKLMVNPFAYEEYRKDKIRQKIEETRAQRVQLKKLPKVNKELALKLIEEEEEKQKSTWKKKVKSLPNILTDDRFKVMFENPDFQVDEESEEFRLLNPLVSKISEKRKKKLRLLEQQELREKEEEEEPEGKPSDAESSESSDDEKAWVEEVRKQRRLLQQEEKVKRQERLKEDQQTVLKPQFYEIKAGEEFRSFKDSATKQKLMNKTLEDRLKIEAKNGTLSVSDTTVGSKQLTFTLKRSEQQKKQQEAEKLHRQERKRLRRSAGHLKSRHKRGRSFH
UniProt Q5TFE4: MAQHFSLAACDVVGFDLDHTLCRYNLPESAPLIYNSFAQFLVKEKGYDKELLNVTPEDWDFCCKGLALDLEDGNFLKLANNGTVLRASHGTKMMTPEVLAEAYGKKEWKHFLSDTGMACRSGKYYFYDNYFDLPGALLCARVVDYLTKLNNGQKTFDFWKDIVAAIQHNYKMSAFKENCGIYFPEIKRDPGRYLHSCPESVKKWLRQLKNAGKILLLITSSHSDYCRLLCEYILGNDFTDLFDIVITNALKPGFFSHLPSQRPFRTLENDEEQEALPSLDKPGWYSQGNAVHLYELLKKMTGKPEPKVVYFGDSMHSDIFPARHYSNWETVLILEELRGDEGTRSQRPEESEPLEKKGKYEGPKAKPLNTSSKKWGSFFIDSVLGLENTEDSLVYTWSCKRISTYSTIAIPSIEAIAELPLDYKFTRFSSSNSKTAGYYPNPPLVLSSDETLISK
UniProt Q8TAT6: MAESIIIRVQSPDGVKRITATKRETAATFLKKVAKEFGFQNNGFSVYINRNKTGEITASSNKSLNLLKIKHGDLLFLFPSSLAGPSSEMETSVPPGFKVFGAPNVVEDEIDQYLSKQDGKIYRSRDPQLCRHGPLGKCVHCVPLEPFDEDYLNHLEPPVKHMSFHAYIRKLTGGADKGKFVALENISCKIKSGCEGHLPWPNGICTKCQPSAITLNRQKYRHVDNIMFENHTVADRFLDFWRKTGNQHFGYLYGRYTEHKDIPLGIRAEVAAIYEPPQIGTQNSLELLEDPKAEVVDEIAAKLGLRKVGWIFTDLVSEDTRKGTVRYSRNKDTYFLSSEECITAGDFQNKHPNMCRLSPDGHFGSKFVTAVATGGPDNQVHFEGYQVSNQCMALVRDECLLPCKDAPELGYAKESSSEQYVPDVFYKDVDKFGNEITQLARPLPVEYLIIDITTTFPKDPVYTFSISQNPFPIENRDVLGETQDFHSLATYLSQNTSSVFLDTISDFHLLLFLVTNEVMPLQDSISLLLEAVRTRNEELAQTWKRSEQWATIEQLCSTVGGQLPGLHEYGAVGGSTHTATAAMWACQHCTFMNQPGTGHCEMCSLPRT
UniProt Q96MF7: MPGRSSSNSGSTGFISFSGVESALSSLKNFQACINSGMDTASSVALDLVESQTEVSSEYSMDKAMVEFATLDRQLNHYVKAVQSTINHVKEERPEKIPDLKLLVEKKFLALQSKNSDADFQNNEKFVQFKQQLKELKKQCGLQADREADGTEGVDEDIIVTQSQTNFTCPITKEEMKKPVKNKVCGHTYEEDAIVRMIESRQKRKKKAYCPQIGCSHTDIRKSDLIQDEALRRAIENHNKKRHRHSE
UniProt P61916: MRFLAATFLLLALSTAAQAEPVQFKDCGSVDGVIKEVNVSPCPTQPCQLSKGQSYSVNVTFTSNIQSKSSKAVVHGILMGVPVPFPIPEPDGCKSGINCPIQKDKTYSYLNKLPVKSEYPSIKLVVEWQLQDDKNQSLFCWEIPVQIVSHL
UniProt O75052: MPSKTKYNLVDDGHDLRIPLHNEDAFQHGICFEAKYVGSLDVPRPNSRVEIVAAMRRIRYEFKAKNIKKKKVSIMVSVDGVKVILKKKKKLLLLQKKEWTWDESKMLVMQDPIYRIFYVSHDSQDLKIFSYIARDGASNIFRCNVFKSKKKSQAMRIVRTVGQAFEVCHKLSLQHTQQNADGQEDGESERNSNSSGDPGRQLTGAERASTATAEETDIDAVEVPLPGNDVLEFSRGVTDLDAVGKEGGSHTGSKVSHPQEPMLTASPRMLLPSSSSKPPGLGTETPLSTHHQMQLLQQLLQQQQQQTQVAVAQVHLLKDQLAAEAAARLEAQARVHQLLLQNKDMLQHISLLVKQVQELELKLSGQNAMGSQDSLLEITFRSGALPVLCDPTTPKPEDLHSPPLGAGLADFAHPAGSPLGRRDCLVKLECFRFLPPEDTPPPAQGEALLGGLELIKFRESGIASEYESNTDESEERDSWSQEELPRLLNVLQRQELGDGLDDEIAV
UniProt Q9H8H0: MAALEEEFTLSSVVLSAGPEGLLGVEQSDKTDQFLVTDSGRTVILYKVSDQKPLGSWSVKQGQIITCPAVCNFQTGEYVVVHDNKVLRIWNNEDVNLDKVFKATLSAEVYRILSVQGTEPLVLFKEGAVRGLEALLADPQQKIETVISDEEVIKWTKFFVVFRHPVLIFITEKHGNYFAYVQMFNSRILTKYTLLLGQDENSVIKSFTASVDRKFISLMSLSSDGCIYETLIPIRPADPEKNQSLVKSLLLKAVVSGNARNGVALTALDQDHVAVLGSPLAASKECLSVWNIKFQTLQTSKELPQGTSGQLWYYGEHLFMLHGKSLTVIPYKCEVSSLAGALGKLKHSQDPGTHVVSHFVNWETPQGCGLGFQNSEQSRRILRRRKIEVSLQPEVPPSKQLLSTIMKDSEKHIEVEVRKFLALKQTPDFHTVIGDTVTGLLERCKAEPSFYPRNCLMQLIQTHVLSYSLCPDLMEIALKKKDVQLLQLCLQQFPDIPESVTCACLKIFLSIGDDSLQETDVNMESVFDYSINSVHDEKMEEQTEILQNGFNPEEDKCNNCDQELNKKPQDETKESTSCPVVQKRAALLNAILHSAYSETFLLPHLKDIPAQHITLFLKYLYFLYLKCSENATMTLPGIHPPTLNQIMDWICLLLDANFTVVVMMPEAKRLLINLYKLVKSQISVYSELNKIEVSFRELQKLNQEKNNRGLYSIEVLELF
UniProt Q86UY8: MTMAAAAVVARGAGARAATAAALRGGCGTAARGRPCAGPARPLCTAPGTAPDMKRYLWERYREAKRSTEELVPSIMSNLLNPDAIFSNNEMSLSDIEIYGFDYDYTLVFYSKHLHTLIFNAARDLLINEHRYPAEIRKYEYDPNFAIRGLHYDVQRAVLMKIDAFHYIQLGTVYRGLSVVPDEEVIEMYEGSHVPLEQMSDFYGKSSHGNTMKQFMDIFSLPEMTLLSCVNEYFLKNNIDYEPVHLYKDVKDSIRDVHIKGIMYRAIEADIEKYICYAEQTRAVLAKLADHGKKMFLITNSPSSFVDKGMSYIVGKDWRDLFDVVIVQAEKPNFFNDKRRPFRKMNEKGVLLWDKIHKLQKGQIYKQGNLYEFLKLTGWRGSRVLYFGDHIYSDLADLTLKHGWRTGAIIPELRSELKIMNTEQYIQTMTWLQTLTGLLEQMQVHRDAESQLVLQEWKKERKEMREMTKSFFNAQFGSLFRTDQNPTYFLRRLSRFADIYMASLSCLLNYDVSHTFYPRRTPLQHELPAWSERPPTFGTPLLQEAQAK
UniProt Q96D46: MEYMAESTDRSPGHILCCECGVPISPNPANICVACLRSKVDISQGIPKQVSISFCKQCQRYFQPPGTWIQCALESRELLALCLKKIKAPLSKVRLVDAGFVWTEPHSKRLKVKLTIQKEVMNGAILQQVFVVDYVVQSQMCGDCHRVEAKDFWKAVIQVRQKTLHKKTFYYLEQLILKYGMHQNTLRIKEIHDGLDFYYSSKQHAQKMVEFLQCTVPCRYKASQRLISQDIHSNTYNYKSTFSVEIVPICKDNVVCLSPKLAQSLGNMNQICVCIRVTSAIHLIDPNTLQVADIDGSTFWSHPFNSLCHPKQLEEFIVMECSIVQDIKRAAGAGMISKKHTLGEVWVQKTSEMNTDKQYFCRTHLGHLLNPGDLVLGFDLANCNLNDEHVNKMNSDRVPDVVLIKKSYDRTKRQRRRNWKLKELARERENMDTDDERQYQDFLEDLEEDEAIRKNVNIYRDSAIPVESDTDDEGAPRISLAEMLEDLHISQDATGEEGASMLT
UniProt Q15738: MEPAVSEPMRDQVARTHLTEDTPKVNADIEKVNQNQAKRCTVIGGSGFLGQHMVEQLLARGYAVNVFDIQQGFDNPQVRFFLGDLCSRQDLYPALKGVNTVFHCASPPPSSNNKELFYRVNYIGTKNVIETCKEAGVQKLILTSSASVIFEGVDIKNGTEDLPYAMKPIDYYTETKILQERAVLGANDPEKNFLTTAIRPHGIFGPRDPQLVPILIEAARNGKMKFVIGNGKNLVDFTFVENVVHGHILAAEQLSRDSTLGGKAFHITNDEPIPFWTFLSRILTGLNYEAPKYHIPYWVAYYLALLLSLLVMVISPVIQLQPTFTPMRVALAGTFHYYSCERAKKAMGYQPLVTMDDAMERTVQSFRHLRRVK

Compound: Cc1cc(ccc1-c1ccccc1)C(=O)N1CCCN(CC1)C(=O)CCl [compound 10]
Experiment: probe-labelled cysteine peptide fold change vs DMSO (competition) (log2 fold change); higher = less target engagement (more negative = stronger competition)
Details: THP-1, incubation time: 4 h
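Note: competitive profiling in live THP-1 cells: cysteine peptides tagged with an iodoacetamide desthiobiotin (IA-DTB) probe, intensity after compound treatment relative to DMSO-treated cells.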

| Target | probe-labelled cysteine peptide fold change (10 µM) | probe-labelled cysteine peptide fold change (50 µM) |
| --- | --- | --- |
| NSUN5_Q96P11_308_YHEVHYILLDPSCSGSGMPSR (UniProt Q96P11) | -0.414 | -0.515 |
| NT5C3A_Q9H0P0_73_IKNPTRVEEIICGLIK (UniProt Q9H0P0) | 0.0602 | -0.646 |
| NOP10_Q9NPE3_28_KFDPMGQQTCSAHPAR (UniProt Q9NPE3) | -0.126 | -0.11 |
| NOL6_Q9H6R4_665_CYDDLSR (UniProt Q9H6R4) | 0.19 | 0.131 |
| NSD1_Q96L73_1185_ENSECAFR (UniProt Q96L73) | 0.489 | 0.234 |
| NOA1_Q8NC60_272_LWEDCAR (UniProt Q8NC60) | -0.052 | -0.275 |
| NSUN2_Q08J23_221_CYLLVHQAK (UniProt Q08J23) | 0.00563 | -0.271 |
| NOL4L_Q96MY1_148_TEVSGCPEDLTVGR (UniProt Q96MY1) | -0.305 | -0.164 |
| NONO_Q15233_208_CSEGSFLLTTFPRPVTVEPMDQLDDEEGLPEK (UniProt Q15233) | -0.0258 | -0.158 |
| NOL9_Q5SY16_581_ITHSDVAPTHILYAVNASWVGLCK (UniProt Q5SY16) | 0.0465 | 0.282 |
| NLRP2_Q9NX02_929_SSLLCLDLGLNHIGVK (UniProt Q9NX02) | -0.271 | -0.24 |
| NQO2_P16083_223_EEPIPCTAHWHFGQ (UniProt P16083) | 0.033 | 0.169 |
| NPM3_O75607_105_LSCQPMLSLDDFQLQPPVTFR (UniProt O75607) | 0.583 | 0.593 |
| NLN_Q9BYT8_199_MSELCIDFNK (UniProt Q9BYT8) | 0.0165 | -0.033 |
| NOL10_Q9BSC4_202_VECWDPR (UniProt Q9BSC4) | -0.0808 | 0.14 |
| NT5DC1_Q5TFE4_179_ENCGIYFPEIK (UniProt Q5TFE4) | -0.226 | -0.0577 |

| Target | probe-labelled cysteine peptide fold change (10 µM) | probe-labelled cysteine peptide fold change (50 µM) |
| --- | --- | --- |
| NPLOC4_Q8TAT6_403_DECLLPCK (UniProt Q8TAT6) | -0.134 | 0.0942 |
| NSMCE2_Q96MF7_215_AYCPQIGCSHTDIR (UniProt Q96MF7) | 0.456 | 0.181 |
| NPLOC4_Q8TAT6_188_FVALENISCK (UniProt Q8TAT6) | -0.0636 | -0.121 |
| NOL10_Q9BSC4_79_CYDTYQLSLK (UniProt Q9BSC4) | 0.154 | 0.368 |
| NOL9_Q5SY16_379_MVYYGKPSCK (UniProt Q5SY16) | -0.00774 | -0.487 |
| NPC2_P61916_42+47_EVNVSPCPTQPCQLSK (UniProt P61916) | -0.0371 | 0.0457 |
| NSD2_O96028_1102_KGEFVNEYVGELIDEEECMAR (UniProt O96028) | -0.0789 | -0.308 |
| NOS1AP_O75052_31_IPLHNEDAFQHGICFEAK (UniProt O75052) | 0.071 | -0.238 |
| NOL11_Q9H8H0_557_CNNCDQELNK (UniProt Q9H8H0) | 0.0774 | -0.199 |
| NT5DC3_Q86UY8_506_FADIYMASLSCLLNYDVSHTFYPR (UniProt Q86UY8) | -0.131 | 0.603 |
| NOTCH2_Q04721_264_NIDDCPNHR (UniProt Q04721) | 0.0708 | 0.126 |
| NMD3_Q96D46_250_STFSVEIVPICK (UniProt Q96D46) | 0.105 | -0.0615 |
| NMD3_Q96D46_214+218_MVEFLQCTVPCR (UniProt Q96D46) | 0.0333 | -0.277 |
| NSDHL_Q15738_104_GVNTVFHCASPPPSSNNK (UniProt Q15738) | -0.0109 | -0.00955 |
| NT5C3B_Q969T7_56_CPSSYNILDNSK (UniProt Q969T7) | -0.0586 | -0.351 |

Full records as entered above. Values in the order: probe-labelled cysteine peptide fold change (10 µM)	probe-labelled cysteine peptide fold change (50 µM)
NSDHL_Q15738_104_GVNTVFHCASPPPSSNNK (UniProt Q15738) reads -0.0109	-0.00955
NOL9_Q5SY16_379_MVYYGKPSCK (UniProt Q5SY16) reads -0.00774	-0.487
